Reference: the supplement of paper PMC10338343
± gives the standard deviation. The entries are a selection whose mix differs from that of the whole data set. Many of these values have a large error.

What follows are sequences tested on MILI (PIWIL2) piRISC loaded with piRNA #1 (26 nt) (assay: pre-steady-state target cleavage rate (min^-1); MIWI and MILI are mouse PIWI proteins and EfPiwi is from a freshwater sponge; tags in brackets are library labels; higher = faster piRNA-guided slicing of the target). Conditions: guide: piRNA #1 5'p-UGAGGUAGUAGGUUGUAUAGUAUCCA; auxiliary factor: 500 nM mouse GTSF1.
Method in brief: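 In this Cleave-'n-Seq assay, uncleaved targets were sequenced and normalised to depth and to weakly complementary targets. They came from a transcribed, DNA-blocked target RNA library […] mixed with 1 nM active affinity-purified piRISC carrying one synthetic guide, with or without 500 nM GTSF1 partner protein, in HEPES–potassium acetate buffer at 33 °C for 0–8 or 0–960 min. After three trials were pooled and k3 was capped at 0.0001 min^-1, the pre-steady-state cleavage rate was obtained from a burst-and-steady-state fit.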
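Also: 1 nM active piRISC with 0.1 nM target library at 33 °C single turnover.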

Sequence	pre-steady-state target cleavage rate
GGAGAGGAUAGUAUACAAGCUACUACCUCA	0.00302 ± 0.0046
GGAGACCUAUGAUAUGUACCUACUAUCCUCA	0.000151 ± 0.022
GGAGACGAUACUAUACAAUCCUACUACCUCA	0.00226 ± 0.0041
GGAGUGGAUACUAUACUACCUACUACCACA	0.143 ± 0.013
GGAGACCAUACUAUACUACCUACUACCACA	0.217 ± 0.021
GGAGACCUAUGAUAUGUACCUACUACCUCA	0.000125 ± 0.019
GGAGUGGAAACUAUACAACCUACUACGUCA	0.0633 ± 0.012
GGAGACCUAUGAUAUGAACCUACUACCUCCA	0.000384 ± 0.0071
GGAGACCUAUGAAUACAAGGAUGAUGGAGA [g13:g18:cont:t1A]	0.000178 ± 0.027
GGAGACCUAUCUAAACAACCUACUUCCUCA	0.0303 ± 0.0063
GGAGACCUAUGAUUACAACCUACUCCUCA	< 0.0001
GGAGAGGAUACUAUAGAACCAACUACCUCA	0.00161 ± 0.0043
GGAGACCUAUGAAUACCAACCUACUACCUCA	0.00269 ± 0.0026
GGAGACGAUACUAUACUACCUAGUACCUCA	0.0742 ± 0.015
GGAGACCUAUGAUAUGUACCUAGUACCACA	0.00024 ± 0.016
GGAGACCUAUGAUAUGUUGCUAGUACCUGA	0.00012 ± 0.032

Part of the list above, bar-delimited:
Sequence | pre-steady-state target cleavage rate
GGAGACCAUACUAUACUACCUACUACCACA | 0.217 ± 0.021
GGAGACCUAUGAUAUGUACCUACUACCUCA | 0.000125 ± 0.019
GGAGUGGAAACUAUACAACCUACUACGUCA | 0.0633 ± 0.012
GGAGACCUAUGAUAUGAACCUACUACCUCCA | 0.000384 ± 0.0071
